Laboratory results from the supplement of paper PMC10735217.
Counter-ions that a name gives are not always drawn. This is one part of the list. Single values are uncertain here, since repeats match poorly.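 The human kidney-derived cells carry a stably integrated construct of eight TEAD-binding elements driving luciferase, read by luminescence in a drug-repurposing library screen. A compound counts as a hit when its signal is more than five robust Z scores above the plate mean.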

Tested on: HEK293A TEAD-LUC reporter
Experiment: TEAD-luciferase reporter activity (YAP activation), robust Z score vs plate; higher = stronger YAP/TEAD activation
Conditions: 24 h

Compound | TEAD-luciferase reporter activity (compound concentration: 200 nM) | TEAD-luciferase reporter activity (compound concentration: 2 uM) | TEAD-luciferase reporter activity (compound concentration: 10 uM)
O=C(CN1C(=O)C2(CCCC2)NC[C@@H]1c1cc(F)cc(F)c1)Nc1ccc2c(c1)C[C@@]1(C2)C(=O)Nc2ncccc21 | inactive: -0.483 | inactive: 0.853 | inactive: 2.3
COc1cc2nccc(Oc3ccc(NC(=O)C4(C(=O)Nc5ccc(F)cc5)CC4)cc3)c2cc1OC [Cabozantinib S-malate] | inactive: 0.698 | inactive: -1.33 | inactive: -0.711
C#Cc1c(Nc2ccc(C#N)cc2F)ncnc1OC1CCN(C(=O)OC(C)C)CC1 | inactive: -1.38 | inactive: -1.17 | inactive: -2.02
COc1ccc(S(=O)(=O)N2CCCC2C(=O)Nc2cc(C)cc(C)c2)cc1 (stereo unspecified) | inactive: -1.38 | inactive: -0.867 | inactive: -0.319
CC(=O)Oc1ccc(Oc2c(I)cc(C(=O)O)cc2I)cc1I | inactive: -0.0643 | inactive: -0.57 | inactive: -1.25
O=C(CCn1cnc2c(=O)[nH]cnc21)NCCCN1CCCC1=O | inactive: -0.867 | inactive: -0.272 | inactive: -0.332
C=C(NNC(=S)NNC(=S)Nc1ccccc1Cl)c1ccccn1 | inactive: 1.49 | inactive: -2.23 | inactive: 2.1
Cc1c(Cl)c(C(F)(F)F)nn1CC(=O)N1CCN(c2ccc(F)cc2)CC1 | inactive: -1.27 | inactive: -0.921 | inactive: -1.48
CC(C(=O)OCCCN1CCCCC1=O)c1cccc(C(=O)c2ccccc2)c1 (stereo unspecified) | inactive: 1.02 | inactive: -0.634 | inactive: 0.213
O=C(c1ccc2c(c1)OCO2)N1CCC(Cc2ccccc2)(C(=O)O)CC1 | inactive: -2.53 |  | inactive: 0.649
N=C(N)c1ncn([C@@H]2O[C@H](CO)C(O)C2O)n1 (stereo partly specified) [Taribavirin hydrochloride] | inactive: -0.772 | inactive: -0.695 | inactive: -0.315
CN(Cc1cc(Br)cc(Br)c1NC(=O)[C@H](CSSC[C@H](NC(=O)OCc1ccccc1)C(=O)O)NC(=O)OCc1ccccc1)C1CCCCC1 | inactive: -0.451 | inactive: 2.6 | inactive: -0.733
CCOc1cc([C@@H](CS(C)(=O)=O)N2Cc3cccc(NC(=O)C4CC4)c3C2=O)ccc1OC | inactive: -0.67 | inactive: 1.08 | inactive: 0.749
NC(CO)(CO)CO | inactive: -1.31 |  | inactive: 1.14
NC(CO)(CO)CO [Trometamol] |  | inactive: -1.68 | 
Cc1ccc(CN2CCCC23Cc2ccccc2CNC3=O)cc1 (stereo unspecified) | inactive: 5.3e-05 |  | inactive: 3.59
CC1(C)Oc2ccc(C#N)cc2[C@H](N2CCCC2)[C@H]1O [Pharmaprojects No. 557] | inactive: -0.812 | inactive: -1.67 | inactive: 3.24
CCOc1cc(/C=C(/C#N)C(N)=O)cc(CSc2ccccc2)c1O | inactive: -1.52 | inactive: -1.14 | inactive: -0.615
FC(F)(F)c1ccc(CNc2ccc(Cc3c[nH]c4ncc(Cl)cc34)cn2)cn1 [Pexidartinib] | inactive: -0.608 | inactive: -0.831 | inactive: -0.776
O=C(O)CN1C(=O)c2cccc3cccc(c23)C1=O [alrestatin] | inactive: 1.46 | inactive: -0.32 | inactive: 2.78

Compound | TEAD-luciferase reporter activity (compound concentration: 200 nM) | TEAD-luciferase reporter activity (compound concentration: 2 uM) | TEAD-luciferase reporter activity (compound concentration: 10 uM)
NC(=O)[C@H](CCC(=O)O)NC(=O)Cc1ccccc1 | inactive: -0.883 | inactive: -1.5 | inactive: 0.966
Cc1cc(=O)oc2cc(OS(=O)(=O)[O-])ccc12 | inactive: -0.72 | inactive: -1.37 | inactive: -1.23
CC(=O)Oc1ccccc1C(=O)Nc1ncc(Cl)s1 | inactive: -0.507 | inactive: -0.42 | inactive: -0.00996
Cc1cc(Cl)c(OCCOc2ccc(C3=C(C(=O)N(Cc4cccc(C)c4C)C4CC4)C4CNCC(C3)N4)cc2)c(Cl)c1 (stereo unspecified) | inactive: 2.16 | inactive: 1.46 | inactive: 2.49
C/C(=C/C=C/C(C)=C/C(=O)O)c1cc(C(C)(C)C)cc(C(C)(C)C)c1OCC(F)F | inactive: -2.29 | inactive: -0.656 | inactive: 0.693
CCOC(=O)CCN[N+](C)(C)CC | inactive: 2.34 | inactive: -0.194 | inactive: 1.33
O=C(c1cc(Cl)cc2nc(N3CCN(C4CC4)CC3)ccc12)C1CC1 | inactive: -0.776 | inactive: 0.407 | inactive: 0.607
Cn1c([N+](=O)[O-])cnc1N1CCN(S(C)(=O)=O)C1=O [satranidazole] | inactive: 0.103 | inactive: -0.0762 | inactive: 4.4
COC1CCN(S(=O)(=O)c2c(Cl)cccc2Cl)CC1 | inactive: -0.692 | inactive: -1.67 | inactive: -1.68
CC(C)(Oc1ccc(C(=O)c2ccc(Cl)cc2)cc1)C(=O)NCCS(=O)(=O)O | inactive: -1.98 | inactive: 1.85 | inactive: 1.06
CCCCC(=O)OCC(C)COC(=O)C(C)(C)C (stereo unspecified) | inactive: -0.244 | inactive: 0.681 | inactive: 0.148
CC(C)C(=O)N1Cc2ccccc2CC2(CCCCN2CC2CCOCC2)C1 (stereo unspecified) | inactive: -1.25 |  | inactive: 0.904
CC(C)=NNc1nc2c(N)ncnc2n1[C@@H]1O[C@H](CO)[C@@H](O)[C@H]1O | inactive: -0.497 | inactive: -0.597 | inactive: -2.44
O=c1ccn(C2OC(CO)C(O)C2O)c(=O)[nH]1 (stereo unspecified) [uridine, RepliGen] | inactive: -1.33 |  | active: 6.44
O=c1ccn(C2OC(CO)C(O)C2O)c(=O)[nH]1 (stereo unspecified) [uridine] |  | inactive: 0.161 | 
CC[C@H](C)[C@H](NC(=O)[C@H](CC(C)C)NC(=O)[C@H](CC(N)=O)NC(=O)[C@H](C)NC(=O)[C@H](Cc1ccccc1)NC(=O)[C@H](CC(N)=O)NC(=O)[C@H](CC(C)C)NC(=O)[C@H](CC(C)C)NC(=O)[C@@H](N)CO)C(=O)N[C@@H](CCC(=O)O)C(=O)O [Oxynor] | inactive: 0.709 | inactive: 0.628 | inactive: 1.78
O=C(O)c1ccc2c(c1)C=C(n1ccnc1)CC2 [rolafagrel] | inactive: -1.61 | inactive: -1.81 | inactive: 0.89
[S]=[Mo](=[S])([S-])[S-] [choline tetrathiomolybdate] | inactive: -1.37 | inactive: 1.25 | inactive: 0.249
CCCCCCC(C(=O)O)n1ccc2cc(-c3ccccc3-c3nn[nH]n3)ccc21 (stereo unspecified) | inactive: -0.418 | inactive: -0.145 | inactive: 0.0194
C[C@H](NC(=O)[C@@H](Cc1c[nH]c2ccccc12)NC(=O)[C@@H](N)Cc1cnc[nH]1)C(=O)N[C@@H](Cc1c[nH]c2ccccc12)C(=O)N[C@H](Cc1ccccc1)C(=O)N[C@@H](CCCCN)C(N)=O | inactive: -1.16 | inactive: -1.42 | inactive: 0.228

Rewritten tab-delimited: entries from further up.
Compound	TEAD-luciferase reporter activity (compound concentration: 200 nM)	TEAD-luciferase reporter activity (compound concentration: 2 uM)	TEAD-luciferase reporter activity (compound concentration: 10 uM)
Cn1c([N+](=O)[O-])cnc1N1CCN(S(C)(=O)=O)C1=O [satranidazole]	inactive: 0.103	inactive: -0.0762	inactive: 4.4
COC1CCN(S(=O)(=O)c2c(Cl)cccc2Cl)CC1	inactive: -0.692	inactive: -1.67	inactive: -1.68

Remaining list, next part

Compound | TEAD-luciferase reporter activity (compound concentration: 200 nM) | TEAD-luciferase reporter activity (compound concentration: 2 uM) | TEAD-luciferase reporter activity (compound concentration: 10 uM)
CN(C)CCCNC(=O)/C(=C/CCCCC(=O)NO)COc1cccc2ccccc12 | inactive: 2.86 | active: 21.4 | active: 25.7
c1ccc(OCc2ccc(CCCN3CCOCC3)cc2)cc1 [Erbocain] | inactive: -1.24 | inactive: -0.339 | inactive: 1.36
CC(C)(CO)C(O)C(=O)NCCCO (stereo unspecified) [dexpanthenol, Bayer] | inactive: -0.0452 |  | inactive: 0.0881
CC(C)(CO)C(O)C(=O)NCCCO (stereo unspecified) [dexpanthenol] |  | inactive: -1.08 | 
O=C(NN1CCCCC1)c1nn(-c2ccc(Cl)cc2Cl)c(-c2ccc(C#Cc3ccc(C(F)(F)F)cc3)s2)c1CNS(=O)(=O)N1CCCC1 | inactive: -0.57 | inactive: -0.915 | inactive: -0.726
C[N+](C)(C)CC(O)C[N+](C)(C)C | inactive: -0.392 | inactive: -0.177 | inactive: -0.359
CC1(C)C(=O)NC2=Nc3ccc(Cl)c(Cl)c3CN21 | inactive: -0.653 | inactive: 0.0493 | inactive: -1.17
CC(C(=O)O)c1ccc(-c2ccsc2)cc1 (stereo unspecified) | inactive: -0.303 | inactive: -0.5 | inactive: -1.46
O=C(O)c1ccccc1C(=O)N1CCSC1 [Nesosteine sodium] | inactive: 1.13 | inactive: -1.7 | inactive: -0.9
COc1cccc(C#CCO/N=C2\CN3CC[C@@H]2C3)c1 | inactive: 0.193 | inactive: 0.629 | active: 8.51
CC(C)c1ccc(C(=O)NCCOc2ccc(C(=O)O)cc2)cc1 | inactive: 0.0521 | inactive: -1.5 | inactive: 1.62
CN1CCC/C1=N\C(=N\c1ccccc1)N1CCCC1 | inactive: -0.209 |  | inactive: -0.453
S=c1[nH]cc(CC2CC=CC2)[nH]1 | inactive: -2.21 | inactive: 0.503 | inactive: -1.14
O=c1c(-c2ccc(O)cc2)coc2c([C@@H]3O[C@H](CO)[C@@H](O)[C@H](O)[C@H]3O)c(O)ccc12 [Kakonein] | inactive: -1.59 | inactive: -1.25 | inactive: -0.695
S=C(N/N=C1/CCCc2cccnc21)N1CCN(c2ccccn2)CC1 | inactive: -0.388 | inactive: 1.64 | active: 5.2
CN1CC(O)C2=C/C(=N\NC(N)=O)C(=O)C=C21 (stereo unspecified) | inactive: -1.27 | inactive: -1.21 | inactive: 0.0678
COc1ccc2cc([C@@H](C)CO)ccc2c1 | inactive: -1.27 | inactive: -0.886 | inactive: 1.59
c1cc(CN2CCCNCCNCCCNCC2)ccc1CN1CCCNCCNCCCNCC1 [Plerixafor hydrochloride] | inactive: 0.44 | inactive: -1.26 | inactive: 1.26
